For assay [1], the target named is cynomolgus VISTA on K562 cells (cynomolgus). The assay can be described thus: FACS K562-C7.
The target of assay [2] is cynomolgus VISTA extracellular domain (cynomolgus). The assay can be described thus: ELISA. (ELISA stands for enzyme-linked immunosorbent assay.)

The text below walks through data of patent publication WO2017175058A1 (dated 2017).

Results are given in words; binding and its absence hold for the method and conditions named. Some results given as binding are weak or reduced against the parent protein; the word gives no strength.

B1: VSTB53 (antibody, human IgG1, V domains shown)
VH: QVQLVQSGAEVKKPGASVKVSCKASGYTFTHYTIHWVRQAPGQGLEWMGYIIPSSGYSEYNQKFKDRVTMTRDTSTSTVYMELSSLRSEDTAVYYCARGAYDDYYDYYAMDYWGQGTLVTVSS
VL: DIVMTQSPLSLPVTPGEPASISCRSSQTIVHSNGNTYLEWYLQKPGQSPQLLIYKVSNRFSGVPDRFSGSGSGTDFTLKISRVEAEDVGVYYCFQASHVPWTFGQGTKLEIK
With B1, the binding result in assay [1] and in assay [2] was “binds” each time.
